Laboratory results taken from publication PMC2893135.
Numbering of substitutions follows the chain as printed. Read-outs that look alike come from different tables or passages of the source. These are yes or no findings as the source states them, for the method shown. In cells and extracts the contact can be indirect. Some results given as binding are weak or reduced against the parent protein; the word gives no strength. Where a sequence is shown, tags or fusion partners need not be part of it.

The chains behind the UniProt entries cited, without tags or fusion partners.
UniProt P50536: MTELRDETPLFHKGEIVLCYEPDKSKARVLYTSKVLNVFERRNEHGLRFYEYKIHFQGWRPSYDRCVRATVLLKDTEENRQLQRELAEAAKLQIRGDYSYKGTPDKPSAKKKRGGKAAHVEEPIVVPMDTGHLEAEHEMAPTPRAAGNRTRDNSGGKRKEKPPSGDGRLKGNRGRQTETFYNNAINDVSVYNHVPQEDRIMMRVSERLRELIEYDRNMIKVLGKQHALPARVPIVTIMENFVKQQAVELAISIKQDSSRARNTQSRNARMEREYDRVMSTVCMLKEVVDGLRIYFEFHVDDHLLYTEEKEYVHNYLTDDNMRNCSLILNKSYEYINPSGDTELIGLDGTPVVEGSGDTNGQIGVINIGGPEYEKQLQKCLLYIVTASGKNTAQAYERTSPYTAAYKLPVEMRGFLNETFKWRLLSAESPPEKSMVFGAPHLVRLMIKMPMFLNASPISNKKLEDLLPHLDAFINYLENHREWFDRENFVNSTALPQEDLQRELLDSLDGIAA

Experiments:
Test in all cases: co-IP; FLAG-MSL1 fragments coexpressed with HA-MOF, HA-MSL3 or both in Drosophila S2 cells; lysate on anti-FLAG M2 beads overnight at 4°C; three washes with 1 M NaCl, 1% NP40 buffer, final wash 150 mM; anti-HA western blot
[1] = target: T1, FLAG-tagged MSL1 fragment from residue 751, K1009X truncation (Drosophila) (UniProt P50535)
T1 sequence: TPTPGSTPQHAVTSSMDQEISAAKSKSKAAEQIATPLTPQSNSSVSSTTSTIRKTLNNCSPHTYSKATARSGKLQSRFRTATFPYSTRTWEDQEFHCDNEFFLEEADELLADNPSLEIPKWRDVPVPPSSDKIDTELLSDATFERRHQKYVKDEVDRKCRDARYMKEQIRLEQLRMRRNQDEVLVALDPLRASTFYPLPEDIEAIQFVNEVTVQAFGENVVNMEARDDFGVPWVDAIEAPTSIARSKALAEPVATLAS

[2] = target: T2, FLAG-tagged MSL1 fragment, residues 751-1,039, S943F (Drosophila) (UniProt P50535)
T2 sequence: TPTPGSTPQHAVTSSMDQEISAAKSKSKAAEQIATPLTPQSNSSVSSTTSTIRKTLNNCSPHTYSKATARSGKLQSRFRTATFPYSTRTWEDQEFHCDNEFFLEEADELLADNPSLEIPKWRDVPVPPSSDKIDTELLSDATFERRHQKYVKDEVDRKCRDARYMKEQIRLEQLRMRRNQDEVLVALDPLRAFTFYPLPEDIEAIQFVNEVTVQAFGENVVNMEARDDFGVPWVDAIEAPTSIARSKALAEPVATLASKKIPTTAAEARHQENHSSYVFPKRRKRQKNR

[3] = target: T3, FLAG-tagged MSL1 fragment, residues 751-1,039, P864L (Drosophila) (UniProt P50535)
T3 sequence: T2 sequence with P114L, F193S

[4] = target: T4, FLAG-tagged MSL1 fragment, residues 751-1,039, AFG allele (AFG to EFF) (Drosophila) (UniProt P50535)
T4 sequence: T2 sequence with F193S, A215E, G217F

[5] = target: T5, FLAG-tagged MSL1 fragment, residues 751-1,039, wild type (Drosophila) (UniProt P50535)
T5 sequence: T2 sequence with F193S

[6] = target: T1, FLAG-tagged MSL1 fragment from residue 751, K1009X truncation (Drosophila); remark: listed apart in the source
[7] = target: T2, FLAG-tagged MSL1 fragment, residues 751-1,039, S943F (Drosophila); remark: listed apart in the source
[8] = target: T3, FLAG-tagged MSL1 fragment, residues 751-1,039, P864L (Drosophila); remark: listed apart in the source
[9] = target: T4, FLAG-tagged MSL1 fragment, residues 751-1,039, AFG allele (AFG to EFF) (Drosophila); remark: listed apart in the source
[10] = target: T5, FLAG-tagged MSL1 fragment, residues 751-1,039, wild type (Drosophila); remark: listed apart in the source

Measured: binding

full-length haemagglutinin (HA)-MSL3 (from UniProt P50536 1-512)
binds: [1] | [2] | [3] | [4] | [5]

B1: full-length haemagglutinin (HA)-MOF ('males absent on first') (enzyme, UniProt O02193 1-827)
chain: MSEAELEQTPSAGHVQEQPIEEEHEPEQEPTDAYTIGGPPRTPVEDAAAELSASLDVSGSDQSAEQSLDLSGVQAEAAAESEPPAKRQHRDISPISEDSTPASSTSTSSTRSSSSSRYDDVSEAEEAPPEPEPEQPQQQQQEEKKEDGQDQVKSPGPVELEAQEPAQPQKQKEVVDQEIETEDEPSSDTVICVADINPYGSGSNIDDFVMDPDAPPNAIITEVVTIPAPLHLKGTQQLGLPLAAPPPPPPPPAAEQVPETPASPTDDGEEPPAVYLSPYIRSRYMQESTPGLPTRLAPRDPRQRNMPPPAVVLPIQTVLSANVEAISDDSSETSSSDDDEEEEEDEDDALTMEHDNTSRETVITTGDPLMQKIDISENPDKIYFIRREDGTVHRGQVLQSRTTENAAAPDEYYVHYVGLNRRLDGWVGRHRISDNADDLGGITVLPAPPLAPDQPSTSREMLAQQAAAAAAASSERQKRAANKDYYLSYCENSRYDYSDRKMTRYQKRRYDEINHVQKSHAELTATQAALEKEHESITKIKYIDKLQFGNYEIDTWYFSPFPEEYGKARTLYVCEYCLKYMRFRSSYAYHLHECDRRRPPGREIYRKGNISIYEVNGKEESLYCQLLCLMAKLFLDHKVLYFDMDPFLFYILCETDKEGSHIVGYFSKEKKSLENYNVACILVLPPHQRKGFGKLLIAFSYELSRKEGVIGSPEKPLSDLGRLSYRSYWAYTLLELMKTRCAPEQITIKELSEMSGITHDDIIYTLQSMKMIKYWKGQNVICVTSKTIQDHLQLPQFKQPKLTIDTDYLVWSPQTAAAVVRAPGNSG
binds: [6] | [7] | [8] | [9] | [10]
